Measurements from article PMC7319344.

T1: Grx3-HBH (C. albicans monothiol glutaredoxin Grx3 with His-Biotin-His tag) (C. albicans) (UniProt Q5AF81)
T1 sequence: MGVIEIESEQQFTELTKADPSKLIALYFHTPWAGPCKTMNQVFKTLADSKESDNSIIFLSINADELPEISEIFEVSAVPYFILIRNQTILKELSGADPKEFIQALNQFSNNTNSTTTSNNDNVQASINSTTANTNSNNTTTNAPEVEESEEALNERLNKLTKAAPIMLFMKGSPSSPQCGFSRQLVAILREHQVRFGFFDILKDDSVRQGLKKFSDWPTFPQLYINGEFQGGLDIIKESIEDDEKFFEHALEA

B1: Sfu1 (protein, UniProt Q5AP95 1-517)
chain: MPTSPTESIPNSSTKEQPILPKMLPTAKSPHTTPAQSPQNSDHHHHHQQTPPQPTDGQQCSNCGTTKTPLWRRAPDGTLICNACGLYYRSNNTHRPVNLKRPPNTIAVVKEEEGSCKGDGRCNGTGGSAACKGCPAYNNRIVAKKALEKSPKNDSSRAPIDKSLKRSTSTDATTEDESSLAIACFNCGTTITPLWRRDDAGNTICNACGLFYRLHGSHRPIKMKRPTIKRRKRNVSDKKSKDEVQMHSSDQSPIVASDPISPTPHNNENNNNVTNITTTTKTPTRSPHYYQPPPQYPYQHHPINSTTSSAINRLPPISYQSPYQTAPLSHSPMQSSSSYSPGASSVIPSSYYPPYSGSGRIPNGPGPVPGPPPPPPPTQSQPHHQQITTSPTSQSYGSLRAPIHITKRGYTPENIRLPSIQLTSSTSSNSETKLPPITNHSEKCCSNCAGPKSLAPMAIDFTASYRFNNIDSQTKLTKEDQNDSEGVSRDNDTRDENKPIKQEEHRSALSIGKLLNG
B2: Rad6 (protein, UniProt O74201 1-179)
chain: MSTPARRRLMRDFKRMQQDPPSGVSASPLPDNVMKWNAVIIGPSDTPFEDGTFRLLLSFDEQYPNKPPQVKFISEMFHPNVYASGELCLDILQNRWSPTYDVSSILTSVQSLLNDPNISSPANVEAANLYKDHRSLYVKRVRETVENSWNDDDDEEEEEEDEDEAEDEDDDDDDNIDED
B3: Rad51 (protein, UniProt Q59UY8 1-361)
chain: MTQTEIEQVDLHEEGSHPQNINADAEVEAEEDEDVLNGPLLIEQLEGNGINASDIKKLKAEGFHTIESIAYTPKRHLMTVKGISENKAEKISAEAAKLVPLGFTTASEFHSRRSELICLTTGSKQLDTLLGGGVETGSITEVFGEFRTGKSQLCHTLAVTCQLPIDMGGGEGKCLYIDTEGTFRPNRLVSIAQRYGLNPNDCLDNVAYARAYNAEHQLNLLNIAAEMMAESRFSLLIVDSIMSLYRTDYAGRGELSARQTHVAKFMRTLQRLADEFGIAVVITNQVVAQVDGMSGMFNPDPKKPIGGNIIAHSSTTRLSFKKGRGETRICKIYDSPCLPESECIFAIYEDGIGDPKVEDNE

Target: T1, Grx3-HBH (C. albicans monothiol glutaredoxin Grx3 with His-Biotin-His tag) (C. albicans)
Assay: affinity purification with mass spectrometry; in vivo cross-linking with 1% formaldehyde for 10 min, His-Biotin-His (HBH) tandem affinity purification of Grx3-HBH under denaturing conditions (lysis in 8M urea buffer), label-free quantitative LC-MS/MS; cells grown in YPM with or without 500 uM BPS for 6hr or 16hr; proteins in untagged control, Wor1/Tup1 HBH purifications and the CRAPome excluded

binding, binds:
B1
B2
B3

Results are given in words; binding and its absence hold for the method and conditions named. Binding seen in cells or lysates may run through a third protein. Here binding means that the protein was enriched with, or labelled near, the bait; the list need not be complete. Sequences can lack the tags named with a protein.
